{"source": "PubChem BioAssay AID1508597 (Cure First, 2020)", "screen": "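Genes whose silencing sensitises or protects ovarian cancer cells against rucaparib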 (primary screen)", "cell system": "human ovarian carcinoma lines grown from tumours: OCI-P5x (papillary serous) and OCI-C5x (clear cell)", "knock-down reagent": "siRNA pool against human genes, 1.25 pmol siRNA per well", "timing": "72 h or 96 h, depending on the cell culture", "challenge": "rucaparib 20 µM (about IC30) or vehicle, present until read-out", "read-out": "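Luminescent ATP-based viability assay read 72 or 96 h after transfection, depending on culture, given as normalised percent viability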", "reading the numbers": "viability, normalised: higher = more viable cells remaining", "hit rule": "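Active when normalised viability falls below 80 percent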", "calls": "active = viability under 80%; inactive = viability 80% or more", "note": "This is a random part of about 2,100 deposited reagents. 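Calls flag viability under 80% in either arm, not effects specific to rucaparib; the reference for percent is not stated.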 The record does not give: the 100% reference."}
{"Target gene":"CD79A","rucaparib or vehicle":"Rucaparib","cell line":"OCI-C5x (clear cell)","technical replicate":"1","viability, normalised (%)":40.5,"call":"active"}
{"Target gene":"CD79A","rucaparib or vehicle":"Rucaparib","cell line":"OCI-C5x (clear cell)","technical replicate":"2","viability, normalised (%)":44.8,"call":"active"}
{"Target gene":"CD79A","rucaparib or vehicle":"Rucaparib","cell line":"OCI-C5x (clear cell)","technical replicate":"3","viability, normalised (%)":41.7,"call":"active"}
{"Target gene":"CD79A","rucaparib or vehicle":"Rucaparib","cell line":"OCI-P5x (serous)","technical replicate":"1","viability, normalised (%)":72.8,"call":"active"}
{"Target gene":"CD79A","rucaparib or vehicle":"Rucaparib","cell line":"OCI-P5x (serous)","technical replicate":"2","viability, normalised (%)":65.7,"call":"active"}
{"Target gene":"CD79A","rucaparib or vehicle":"Rucaparib","cell line":"OCI-P5x (serous)","technical replicate":"3","viability, normalised (%)":59.9,"call":"active"}
{"Target gene":"CD79A","rucaparib or vehicle":"Vehicle","cell line":"OCI-C5x (clear cell)","technical replicate":"1","viability, normalised (%)":50.3,"call":"active"}
{"Target gene":"CD79A","rucaparib or vehicle":"Vehicle","cell line":"OCI-C5x (clear cell)","technical replicate":"2","viability, normalised (%)":58.5,"call":"active"}
{"Target gene":"CD79A","rucaparib or vehicle":"Vehicle","cell line":"OCI-C5x (clear cell)","technical replicate":"3","viability, normalised (%)":52.2,"call":"active"}
{"Target gene":"CD79A","rucaparib or vehicle":"Vehicle","cell line":"OCI-P5x (serous)","technical replicate":"1","viability, normalised (%)":51.1,"call":"active"}
{"Target gene":"CD79A","rucaparib or vehicle":"Vehicle","cell line":"OCI-P5x (serous)","technical replicate":"2","viability, normalised (%)":49.2,"call":"active"}
{"Target gene":"CD79A","rucaparib or vehicle":"Vehicle","cell line":"OCI-P5x (serous)","technical replicate":"3","viability, normalised (%)":55,"call":"active"}
